The results in this text go back to paper PMC7819943, “Rice protein-binding microarrays: a tool to detect cis-acting elements near promoter regions in rice”.

The other results are listed elsewhere or left out.

The assay deals with T1, OsSMF1 (Oryza sativa, UniProt Q6ZLB0 1-436).
T1 sequence: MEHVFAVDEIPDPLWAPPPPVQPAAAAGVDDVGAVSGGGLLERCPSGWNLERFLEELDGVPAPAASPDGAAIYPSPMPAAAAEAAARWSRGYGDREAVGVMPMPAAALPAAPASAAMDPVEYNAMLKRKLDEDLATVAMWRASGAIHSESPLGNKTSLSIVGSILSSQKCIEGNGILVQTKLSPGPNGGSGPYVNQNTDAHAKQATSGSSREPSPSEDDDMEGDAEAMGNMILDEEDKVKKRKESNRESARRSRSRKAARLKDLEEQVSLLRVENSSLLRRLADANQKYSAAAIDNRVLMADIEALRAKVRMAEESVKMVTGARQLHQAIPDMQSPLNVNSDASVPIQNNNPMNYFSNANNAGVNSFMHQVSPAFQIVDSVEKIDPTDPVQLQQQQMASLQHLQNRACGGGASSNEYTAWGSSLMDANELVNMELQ
Put plainly: protein-binding microarray (RPBM); PBS, 2% BSA, 51.3 ng/ul salmon testes DNA, 50 uM zinc acetate, 200 nM TF, 25 C, 1 h; high values mean tight binding. Particulars: protein: recombinant; tags: N-terminal polyhistidine and DsRed monomer fusion (pET32a); chain copies: 2; label: CyDye5-dUTP incorporated in the synthesized complementary strand; 3' TTTTT single-stranded linker to array surface; dsDNA, one strand shown. Put shortly: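 Ni–NTA purification followed expression in E. coli BL21-CodonPlus of transcription factors fused N-terminally to a polyhistidine tag and DsRed. At 200 nM in PBS with 2% BSA, salmon testes DNA and 50 µM zinc acetate, the protein was incubated for 1 h at 25 °C with a custom Agilent array that had been primer-extended with Cy5-dUTP and blocked with 2% BSA. After washing, the array was read on an Axon 4000B scanner. The binding signal is per-feature fluorescence intensity in arbitrary units.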
Take “CTTGACTAGCTGACTGTTCTTACAAGTGACATCAGTCGAGCGGAGTCACCTAGTGCAG”: the binding signal is 4110 fluorescence intensity (a.u.).

For the sequence “CTCACATACGCTTGTTAACCCTTTCTTTCACGTGATGACTCGGAGTCACCTAGTGCAG”, the binding signal was 4410 fluorescence intensity (a.u.).

In the case of “TAGCTAAACAGATCTAATCCCCTTCTTTCTCCCCAATCCTCGGAGTCACCTAGTGCAG”, the binding signal was 37500 fluorescence intensity (a.u.).

Take “GCTGTCGATAGGTATCTCGTCTACCACTGAAAGAATAATTCGGAGTCACCTAGTGCAG”: the binding signal was 4560 fluorescence intensity (a.u.).

With “TTTCACCAGTGGCGCGACGCGATCCGCGTCAGGCGCATCTCGGAGTCACCTAGTGCAG”, the binding signal is 3260 fluorescence intensity (a.u.).

In the case of “AAATAAAATACTGACTGGAATGCCACGCGTATGTCACGTACGGAGTCACCTAGTGCAG”, the binding signal is 9370 fluorescence intensity (a.u.).

“ATTTAAACTACCTTTTCATTGACACATGCACTCTCACCGACGGAGTCACCTAGTGCAG”: the binding signal is 3580 fluorescence intensity (a.u.).

With “ATATAATTTGCTTTAAAGTGAATATGTTATCACCGCAGATCGGAGTCACCTAGTGCAG”, the binding signal is 3490 fluorescence intensity (a.u.).

For “ACGATTCGCTGCTCGCCGGCCTCCGCCGCGGGCGCCGCGACGGAGTCACCTAGTGCAG”, the binding signal is 3560 fluorescence intensity (a.u.).

Take “CGGCGACGGCCTCCCGCACCTTCGCCTTCCACGCCACCGACGGAGTCACCTAGTGCAG”: the binding signal is 3900 fluorescence intensity (a.u.).

Consider “TCCTTCTCTGACTCTGTCTTGGCCATCCTATTCCTAGCTCCGGAGTCACCTAGTGCAG”, for which the binding signal was 29000 fluorescence intensity (a.u.).

In the case of “AGTTTGTGTTTGTCACGTCGCAGTTTTCGTTAGTGTTTTGCGGAGTCACCTAGTGCAG”, the binding signal was 3580 fluorescence intensity (a.u.).

As for “ACCTCGCAGTCGCATCGTCATCGCGGGCGGCCGCCTCGGCCGGAGTCACCTAGTGCAG”, the binding signal was 4760 fluorescence intensity (a.u.).

For the sequence “TCTTCTTCTTCTTCCTTCCAAATTGCAAATCGCAATGCCACGGAGTCACCTAGTGCAG”, the binding signal was 3160 fluorescence intensity (a.u.).

Consider “AAGAAACCCAACTATTAAATCCACAAGTAATCATAGAAAACGGAGTCACCTAGTGCAG”, for which the binding signal was 32800 fluorescence intensity (a.u.).

With “TCGTCTCTCTGTGTATGTTCATGGGTCCCACATAGCAATTCGGAGTCACCTAGTGCAG”, the binding signal is 3220 fluorescence intensity (a.u.).

Consider “AGCGGCGCACATGGGGCGAGCGAGGAGGGGTGCCACGTAACGGAGTCACCTAGTGCAG”, for which the binding signal was 8360 fluorescence intensity (a.u.).

With “CGGCGAAGCAGAGCGCAGAGCGGAGGGTAGAGTGCGTCATCGGAGTCACCTAGTGCAG”, the binding signal was 3920 fluorescence intensity (a.u.).

Consider “CCTAGCCCCTCCCCTCCCCGTGCTCTCGCCCTCGTCTCCTCGGAGTCACCTAGTGCAG”, for which the binding signal is 14000 fluorescence intensity (a.u.).

In the case of “ATCCACCCTCTATTCATCTACTCGGTTAGATGATCATTCACGGAGTCACCTAGTGCAG”, the binding signal is 3300 fluorescence intensity (a.u.).

On to “TCGGCGGGGATGTCGTCGGTGGCGAGGTCGCCGGAGCGGACGGAGTCACCTAGTGCAG”, for which the binding signal is 6700 fluorescence intensity (a.u.).

On to “CTCCTGGTTGCACACCACCATGTCATCGCCGGATGTTGCCCGGAGTCACCTAGTGCAG”, for which the binding signal was 5270 fluorescence intensity (a.u.).

Consider “AAGAGGATGGCTGGGAGGATGACATGTGGAGCCCACATGGCGGAGTCACCTAGTGCAG”, for which the binding signal is 4450 fluorescence intensity (a.u.).

Consider “GAGGGTTGCGACGCCGAAAGACGCCGTCGTCATCCGTCCACGGAGTCACCTAGTGCAG”, for which the binding signal was 3710 fluorescence intensity (a.u.).

Turning to “CGGCCCCACCCTCCACTGTCCCCACCTCGTCAGTCACCGCCGGAGTCACCTAGTGCAG”, the binding signal was 24300 fluorescence intensity (a.u.).

As to “CTTATCACGCAATCACACTAGATGAGCACGATCTAGCTTGCGGAGTCACCTAGTGCAG”, the binding signal was 3140 fluorescence intensity (a.u.).

Turning to “GCACCTCTTTCCTATCACGCGTCACCTTGCTCCATTGTCGCGGAGTCACCTAGTGCAG”, the binding signal is 5900 fluorescence intensity (a.u.).

On to “GGGGTCGCGGAGAGGGAAGAAGGCGTGGCGCGCCAACATCCGGAGTCACCTAGTGCAG”, for which the binding signal is 30000 fluorescence intensity (a.u.).

Turning to “GGTCTGTGGCCAGTCATCTTTTATTGGTTATCCTAACACTCGGAGTCACCTAGTGCAG”, the binding signal is 3660 fluorescence intensity (a.u.).

For “CAAAGAGGGATCATGAACTCGCAAAGTCTGTTTGGACGATCGGAGTCACCTAGTGCAG”, the binding signal is 29700 fluorescence intensity (a.u.).

In the case of “AAAATTCAGGAACACGACGTAGTATATACGCGTCATGCATCGGAGTCACCTAGTGCAG”, the binding signal is 5650 fluorescence intensity (a.u.).

Take “ATATTGTCACGTGTCACATGTTAGTTTGTTCAGGAACGGACGGAGTCACCTAGTGCAG”: the binding signal is 5880 fluorescence intensity (a.u.).

As to “GAGATGAAAATGGGGCCCGTTCACCGTTTCCCCGCAGTGACGGAGTCACCTAGTGCAG”, the binding signal was 3530 fluorescence intensity (a.u.).

Turning to “TTCCTCCGTTTCACAATGTAAGATTTTCTAGCATTGCCCACGGAGTCACCTAGTGCAG”, the binding signal was 4800 fluorescence intensity (a.u.).

Turning to “CGCGTGGCTAACGTCACCCAAAACCCAGCTCAGCAAATAGCGGAGTCACCTAGTGCAG”, the binding signal is 5590 fluorescence intensity (a.u.).

Turning to “TTTCATGATGAATCTACGTATACACTCCATCTTCCTGTTGCGGAGTCACCTAGTGCAG”, the binding signal is 4320 fluorescence intensity (a.u.).

As to “TGCCGGTTTGGATAGGAAAGTTGAGCAGCCTGGATTTTGTCGGAGTCACCTAGTGCAG”, the binding signal was 3220 fluorescence intensity (a.u.).

Consider “AGTGCACCGCTGTCCCCATTGAGATGGAGTCAGCACGAGACGGAGTCACCTAGTGCAG”, for which the binding signal was 5080 fluorescence intensity (a.u.).

“CCGCGTCCGTACTCTCTAGCCTGCGGGTAAGCAACGAACTCGGAGTCACCTAGTGCAG”: the binding signal was 45200 fluorescence intensity (a.u.).

For the sequence “AGACCAAGTCAAATCAGCCACGTAGATGCCACATCAGCCGCGGAGTCACCTAGTGCAG”, the binding signal is 35900 fluorescence intensity (a.u.).

With “AATGGGAGGAGATGGAAGGATGGCAACTCCGCCCGTTACACGGAGTCACCTAGTGCAG”, the binding signal was 13500 fluorescence intensity (a.u.).

As for “GAGGATTTAGAGCACGAATCACAAAGTCATGTGGCTGACGCGGAGTCACCTAGTGCAG”, the binding signal was 4110 fluorescence intensity (a.u.).

Turning to “TTTGATGGGAATTTGTTTCAGATATGCTTACGTGCACATACGGAGTCACCTAGTGCAG”, the binding signal is 7570 fluorescence intensity (a.u.).

Take “ACACAAGTGAGTGGGTGACGCGACGATGCTAGCCCGATGCCGGAGTCACCTAGTGCAG”: the binding signal is 6260 fluorescence intensity (a.u.).

With “GTACTTTCTTGACTAATCATCTATTGTGTGCACACTTTTCCGGAGTCACCTAGTGCAG”, the binding signal is 3370 fluorescence intensity (a.u.).

With “ATGCACAACTCGAGCTCCACATCACAGCTGCAGCAACGTACGGAGTCACCTAGTGCAG”, the binding signal is 4730 fluorescence intensity (a.u.).

Take “TCGAACCAATAGTTTCATAGTGACTCATTAGCATATAATTCGGAGTCACCTAGTGCAG”: the binding signal was 4980 fluorescence intensity (a.u.).

For the sequence “CCTCTCTGATTCGTCACCGCCACCGCCGCGTCGTCCCGCGCGGAGTCACCTAGTGCAG”, the binding signal is 6810 fluorescence intensity (a.u.).

For “TACGCTCACGAGTAAGGAGATGTGGTCGCCATTCATATCACGGAGTCACCTAGTGCAG”, the binding signal was 3310 fluorescence intensity (a.u.).

Regarding “AGCACGCGAAACAAGTCAGGCGATTGCCAGTTTGCCACCCCGGAGTCACCTAGTGCAG”, the binding signal is 22700 fluorescence intensity (a.u.).

As for “CACTTTGCCATGTCACACTTTAGTTATGCCACATGTGTTTCGGAGTCACCTAGTGCAG”, the binding signal was 17400 fluorescence intensity (a.u.).

As for “TTAGAAATATAAATGACACATCTCTACAAGTTGTAAGTACCGGAGTCACCTAGTGCAG”, the binding signal was 3760 fluorescence intensity (a.u.).

For “AGCATCTCCGATGTCCATGTCGTCGTGACGTCACCACACGCGGAGTCACCTAGTGCAG”, the binding signal is 28200 fluorescence intensity (a.u.).

For the sequence “GGAGTGAGGACATGACAAATCATTTTGTGCTCAAGAGACTCGGAGTCACCTAGTGCAG”, the binding signal was 3200 fluorescence intensity (a.u.).
